Values from PubChem BioAssay AID493246 (Drosophila RNAi Screening Center, 2011).
The screen tested about 21,000 reagents; this is an unselected part of those that have a named target and a result. In the full data, 429 (2%) were called active. 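Values are raw and not normalised between plates; calls rest on per-plate z-scores that were not deposited.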 Reagent sequences are not shown. The record does not give: the amount of reagent, the time to read-out.

Purpose: 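Genes fly cells need to grow and stay alive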 (primary screen)
System: Drosophila Kc and S2R+ cells
Reagent: long dsRNA against Drosophila genes
Detection: 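Raw, unnormalised count of remaining cells in each well; per-plate z-scores of cell number underlie the calls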
Reading the numbers: Kc cell number and S2R+ cell number: higher = more cells remaining
Call rule: 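Active when the per-plate z-score of cell number is 3 or more in the direction of fewer cells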

Syt1 [DRSC00156] — Kc cell number, rep 1: 1.59e6; Kc cell number, rep 2: 1.61e6; S2R+ cell number, rep 1: 1.05e6; S2R+ cell number, rep 2: 1.21e6; activity call: inactive
Syt1 [DRSC00157] — Kc cell number, rep 1: 1.54e6; Kc cell number, rep 2: 1.59e6; S2R+ cell number, rep 1: 1.04e6; S2R+ cell number, rep 2: 1.20e6; activity call: inactive
Syt1 [DRSC00158] — Kc cell number, rep 1: 1.50e6; Kc cell number, rep 2: 1.53e6; S2R+ cell number, rep 1: 1.07e6; S2R+ cell number, rep 2: 1.18e6; activity call: inactive
Syt1 [DRSC00840] — Kc cell number, rep 1: 1.31e6; Kc cell number, rep 2: 1.41e6; S2R+ cell number, rep 1: 1.02e6; S2R+ cell number, rep 2: 1.04e6; activity call: inactive

Continued, starting with the last 2 of the part before.
Syt1 [DRSC00158] — Kc cell number, rep 1: 1.50e6; Kc cell number, rep 2: 1.53e6; S2R+ cell number, rep 1: 1.07e6; S2R+ cell number, rep 2: 1.18e6; activity call: inactive
Syt1 [DRSC00840] — Kc cell number, rep 1: 1.31e6; Kc cell number, rep 2: 1.41e6; S2R+ cell number, rep 1: 1.02e6; S2R+ cell number, rep 2: 1.04e6; activity call: inactive
CG2291 [DRSC06836] — Kc cell number, rep 1: 1.55e6; Kc cell number, rep 2: 1.72e6; S2R+ cell number, rep 1: 1.38e6; S2R+ cell number, rep 2: 1.55e6; activity call: inactive
Atg12 [DRSC09803] — Kc cell number, rep 1: 1.52e6; Kc cell number, rep 2: 1.80e6; S2R+ cell number, rep 1: 1.33e6; S2R+ cell number, rep 2: 1.39e6; activity call: inactive
CG17349 [DRSC02610] — Kc cell number, rep 1: 1.68e6; Kc cell number, rep 2: 1.77e6; S2R+ cell number, rep 1: 1.24e6; S2R+ cell number, rep 2: 2.77e5; activity call: inactive
CG7579 [DRSC10885] — Kc cell number, rep 1: 1.44e6; Kc cell number, rep 2: 1.47e6; S2R+ cell number, rep 1: 1.27e6; S2R+ cell number, rep 2: 1.39e6; activity call: inactive
cnir [DRSC00499] — Kc cell number, rep 1: 1.70e6; Kc cell number, rep 2: 1.68e6; S2R+ cell number, rep 1: 1.14e6; S2R+ cell number, rep 2: 1.29e6; activity call: inactive
mRpL22 [DRSC19915] — Kc cell number, rep 1: 1.50e6; Kc cell number, rep 2: 1.51e6; S2R+ cell number, rep 1: 9.66e5; S2R+ cell number, rep 2: 1.09e6; activity call: inactive
Or23a [DRSC00767] — Kc cell number, rep 1: 1.51e6; Kc cell number, rep 2: 1.49e6; S2R+ cell number, rep 1: 1.10e6; S2R+ cell number, rep 2: 1.24e6; activity call: inactive
Fas3 [DRSC01638] — Kc cell number, rep 1: 1.49e6; Kc cell number, rep 2: 1.58e6; S2R+ cell number, rep 1: 9.94e5; S2R+ cell number, rep 2: 1.24e6; activity call: inactive
Fas3 [DRSC03326] — Kc cell number, rep 1: 1.67e6; Kc cell number, rep 2: 1.58e6; S2R+ cell number, rep 1: 1.25e6; S2R+ cell number, rep 2: 1.48e6; activity call: inactive
